# Experimental data taken from PubChem BioAssay AID504834 (National Center for Advancing Translational Sciences (NCATS), 2011).
# Out of some 320,000 compounds screened, about 22,000 (6.9%) were called active. Inconclusive results, whose numbers are uncertain, are shown with a selection of clear calls. Calls come from the whole dose curve; as a rule, active = well fitted inhibition curve with a large enough effect; inconclusive = small, poorly fitted or top-dose-only effect, or another doubt; inactive = no such curve, though single readings can be large or run the other way. A potency beside an inconclusive call is a rough fit, not a confirmed value.
# Assay: Primary qHTS for delayed death inhibitors of the malarial parasite plastid, 96 hour incubation
# Conditions: P. falciparum luciferase reporter growth; series mostly up to 28.7 µM; activity change, negative = inhibition: at the top concentration
# Procedure, shortened: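 Cell-based qHTS: luciferase-tagged P. falciparum in erythrocytes (2% hematocrit, 0.05% parasitemia final) incubated with compounds for 96 hours, 37 C, 5% CO2; luciferase detection reagent then added and luminescence measured.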
# % is set by controls: 0 for no effect and ±100 for the full control effect; potency is the fitted concentration of half-maximal effect.
Structure (SMILES),Potency,"activity change, negative = inhibition"
O=C1CC(c2c(F)cccc2Cl)C(n2cncn2)C(O)=C1C1NCCc2ccccc21 (stereo not given),"inconclusive: 0.0415 µM [inhibitor, full curve, poor fit]",
Fc1cccc(CO/N=C/c2c(-c3ccccc3)nc3ccc(Cl)cn23)c1,"inconclusive: 1.85 µM [inhibitor, partial curve, poor fit]",
O=C(NCc1ccco1)C1(c2ccccc2)CCCC1,,inactive: 17.1%
CCc1nc(OCCN(C)C)c2oc3ccccc3c2n1,,inactive: 8.2%
CCCCn1c(-c2csc(CC)c2)n[nH]c1=S,,inactive: -2.27%
COCC(C)NC(C(=O)Nc1cccc(C(C)=O)c1)c1ccccc1 (stereo not given),"inconclusive: 3.29 µM [inhibitor, partial curve]",
COc1ccc(N(C)S(=O)(=O)c2cccc(C(=O)NCC3CCCCC3)c2)cc1,"inconclusive: 5.86 µM [inhibitor, partial curve, poor fit]",
COc1ccc(CCC(C)Nc2ccccc2F)cc1 (stereo not given),"inconclusive: 18.5 µM [inhibitor, single point]",
CC1CCCC(C)N1C(=O)COc1ccc(F)cc1 (stereo not given),"inconclusive: 11.7 µM [inhibitor, single point]",
Cc1cc(C)cc(NC(=S)NCc2cccn2C)c1,"inconclusive: 11.7 µM [inhibitor, partial curve, poor fit]",
CCNC(=S)Nc1cccc(S(=O)(=O)Nc2ccccc2OC)c1,,inactive: 3.22%
COc1ccccc1-c1nn2c(C3COc4ccccc4O3)nnc2s1 (stereo not given),active: 3.7 µM,
CCCNC(=O)N1CCC(n2nccc2NC(=O)CCOc2ccccc2)CC1,"inconclusive: 18.5 µM [inhibitor, single point]",
O=C1NC(=O)/C(=C\c2ccc(OCc3cccc([N+](=O)[O-])c3)cc2)N1,,inactive: -19%
Cc1cc(C)cc(OCC(O)CN2C(=O)NC(C)(C)C2=O)c1 (stereo not given),"inconclusive: 11.7 µM [inhibitor, single point]",
COc1ccc(-c2cc3c(=O)n(CC(=O)Nc4ccc(Cl)cc4)nc(C)n3n2)cc1,"inconclusive: 18.5 µM [inhibitor, single point]",
CC(C)(C)c1ccc(C(=O)Nc2nnc(Cc3c[nH]c4ccccc34)s2)cc1,"inconclusive: 11.7 µM [inhibitor, single point]",
O=C(NCC1CCCO1)c1onc(CSc2cccc3ccccc23)c1C(=O)O (stereo not given),,inactive: 29.7%
Cc1ccc(C)c(NC(=O)NNS(=O)(=O)c2ccc(C)c(C)c2)c1,"inconclusive: 0.0041 µM [inhibitor, full curve, poor fit]",
COc1ccccc1C(=O)N(Cc1sccc1C)C1CCS(=O)(=O)C1 (stereo not given),active: 2.08 µM,

# Single records, from the list above:
# COc1ccc(CCC(C)Nc2ccccc2F)cc1 (stereo not given) is listed as Potency: inconclusive: 18.5 µM [inhibitor, single point]
# Cc1ccc(C)c(NC(=O)NNS(=O)(=O)c2ccc(C)c(C)c2)c1 is listed as Potency: inconclusive: 0.0041 µM [inhibitor, full curve, poor fit]
